Values of other authors in publication PMC7811525, “Virtual screening of potentially endocrine-disrupting chemicals against nuclear receptors and its application to identify PPARγ-bound fatty acids” (Archives of Toxicology, 2020).

Test system: PPARα
Parameters: method as in ToxCast database released in October 2015
Details: active/inactive call; ref ToxCast database released in October 2015; cited from earlier work

## Clc1ccc(COC(Cn2ccnc2)c2ccc(Cl)cc2Cl)cc1 (stereo not shown) [econazole]
  ToxCast activity against PPARα: active
